Results are given in words; binding and its absence hold for the method and conditions named. Some binding calls cover weakened binding; strength is not graded here.
Biological target: amyloid beta in brain sections of a human Alzheimer's disease case (human) (UniProt P05067)
Assay: immunohistochemistry on human Alzheimer's disease brain sections with supernatant of transduced myoblasts

Sequences of proteins named here, by UniProt entry; tags and fusion partners are left off. Residues count along the entry.
UniProt P05067, residues 672-713: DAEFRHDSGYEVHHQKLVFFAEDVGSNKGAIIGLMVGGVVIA

- binding: binds
B1: myoblast-produced anti-amyloid beta IgG (gantenerumab variable regions in a human IgG1 heavy chain and human kappa light chain backbone) (antibody, V domains shown)
VH: QVELVESGGGLVQPGGSLRLSCAASGFTFSSYAMSWVRQAPGKGLEWVSAINASGTRTYYADSVKGRFTISRDNSKNTLYLQMNSLRAEDTAVYYCARGKGNTHKPYGYVRYFDVWGQGTLVTVSS
VL: DIVLTQSPATLSLSPGERATLSCRASQSVSSSYLAWYQQKPGQAPRLLIYGASSRATGVPARFSGSGSGTDFTLTISSLEPEDFATYYCLQIYNMPITFGQGTKVEIKR
